Reference: the supplement of paper PMC6411743
± gives the standard deviation of the averaged measurements. This is a selection; strong and weak results do not stand in their true shares. Most values lie at the level of the controls, where differences are scatter.

Amino acid sequences for entries named in this document (tags omitted). A change or cut given only in a name is not applied to a line headed by its entry.
UniProt Q13618, whole entry: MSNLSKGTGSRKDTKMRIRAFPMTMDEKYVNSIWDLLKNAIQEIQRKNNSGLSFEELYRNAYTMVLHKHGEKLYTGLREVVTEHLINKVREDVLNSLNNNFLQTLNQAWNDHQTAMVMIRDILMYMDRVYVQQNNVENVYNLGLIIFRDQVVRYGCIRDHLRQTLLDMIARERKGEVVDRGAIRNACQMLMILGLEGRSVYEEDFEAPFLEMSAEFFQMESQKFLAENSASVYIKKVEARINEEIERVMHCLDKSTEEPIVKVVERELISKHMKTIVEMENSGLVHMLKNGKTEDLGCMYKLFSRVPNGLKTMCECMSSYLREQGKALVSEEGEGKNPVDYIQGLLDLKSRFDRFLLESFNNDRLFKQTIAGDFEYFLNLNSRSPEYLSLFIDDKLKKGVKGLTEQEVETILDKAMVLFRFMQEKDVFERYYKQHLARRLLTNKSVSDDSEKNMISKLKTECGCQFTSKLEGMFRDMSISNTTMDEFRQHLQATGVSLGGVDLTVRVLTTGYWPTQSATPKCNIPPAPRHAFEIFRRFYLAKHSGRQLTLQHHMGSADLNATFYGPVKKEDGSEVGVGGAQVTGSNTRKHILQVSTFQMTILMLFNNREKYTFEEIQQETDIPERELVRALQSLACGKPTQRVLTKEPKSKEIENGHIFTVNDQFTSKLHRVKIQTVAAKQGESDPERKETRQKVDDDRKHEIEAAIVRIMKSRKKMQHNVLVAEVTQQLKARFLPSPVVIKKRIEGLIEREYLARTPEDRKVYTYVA
UniProt Q13362, whole entry, looked up: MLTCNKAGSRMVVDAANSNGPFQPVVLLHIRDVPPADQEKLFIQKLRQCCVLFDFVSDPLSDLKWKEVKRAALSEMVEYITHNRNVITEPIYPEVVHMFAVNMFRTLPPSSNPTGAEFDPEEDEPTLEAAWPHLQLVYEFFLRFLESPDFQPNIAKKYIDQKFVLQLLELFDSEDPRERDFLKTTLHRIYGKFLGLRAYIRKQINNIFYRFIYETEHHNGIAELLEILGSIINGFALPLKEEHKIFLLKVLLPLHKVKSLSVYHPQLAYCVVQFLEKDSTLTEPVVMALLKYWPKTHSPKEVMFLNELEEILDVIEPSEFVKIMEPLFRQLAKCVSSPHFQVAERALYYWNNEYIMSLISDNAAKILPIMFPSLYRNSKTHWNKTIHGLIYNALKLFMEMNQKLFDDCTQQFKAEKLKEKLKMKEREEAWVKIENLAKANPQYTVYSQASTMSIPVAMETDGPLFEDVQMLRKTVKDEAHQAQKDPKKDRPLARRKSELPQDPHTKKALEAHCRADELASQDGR
UniProt Q12800: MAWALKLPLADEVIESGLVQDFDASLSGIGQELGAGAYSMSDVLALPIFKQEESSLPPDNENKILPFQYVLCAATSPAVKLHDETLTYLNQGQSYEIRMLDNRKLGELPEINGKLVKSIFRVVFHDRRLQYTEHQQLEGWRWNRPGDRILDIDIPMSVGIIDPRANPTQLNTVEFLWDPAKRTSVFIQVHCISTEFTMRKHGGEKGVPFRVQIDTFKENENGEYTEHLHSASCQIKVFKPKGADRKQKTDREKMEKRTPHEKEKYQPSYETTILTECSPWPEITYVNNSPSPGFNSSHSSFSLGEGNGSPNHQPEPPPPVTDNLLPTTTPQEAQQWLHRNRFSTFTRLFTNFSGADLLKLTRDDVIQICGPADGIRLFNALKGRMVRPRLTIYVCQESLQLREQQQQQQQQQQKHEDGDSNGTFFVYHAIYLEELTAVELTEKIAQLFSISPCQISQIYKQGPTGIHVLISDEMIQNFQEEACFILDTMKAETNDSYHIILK
UniProt Q14108: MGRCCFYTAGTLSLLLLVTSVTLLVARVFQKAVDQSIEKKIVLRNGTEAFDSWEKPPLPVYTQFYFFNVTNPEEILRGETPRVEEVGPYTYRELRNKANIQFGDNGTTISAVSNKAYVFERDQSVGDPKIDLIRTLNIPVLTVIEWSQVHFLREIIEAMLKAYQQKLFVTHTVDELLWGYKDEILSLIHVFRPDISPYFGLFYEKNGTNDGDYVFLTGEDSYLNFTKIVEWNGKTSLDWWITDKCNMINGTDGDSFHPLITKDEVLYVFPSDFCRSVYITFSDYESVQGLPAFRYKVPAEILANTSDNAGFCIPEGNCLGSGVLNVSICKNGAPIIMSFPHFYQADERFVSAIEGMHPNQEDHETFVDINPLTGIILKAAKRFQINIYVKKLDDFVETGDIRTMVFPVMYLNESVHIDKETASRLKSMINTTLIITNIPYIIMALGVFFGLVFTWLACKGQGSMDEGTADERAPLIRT
UniProt Q15021, whole entry: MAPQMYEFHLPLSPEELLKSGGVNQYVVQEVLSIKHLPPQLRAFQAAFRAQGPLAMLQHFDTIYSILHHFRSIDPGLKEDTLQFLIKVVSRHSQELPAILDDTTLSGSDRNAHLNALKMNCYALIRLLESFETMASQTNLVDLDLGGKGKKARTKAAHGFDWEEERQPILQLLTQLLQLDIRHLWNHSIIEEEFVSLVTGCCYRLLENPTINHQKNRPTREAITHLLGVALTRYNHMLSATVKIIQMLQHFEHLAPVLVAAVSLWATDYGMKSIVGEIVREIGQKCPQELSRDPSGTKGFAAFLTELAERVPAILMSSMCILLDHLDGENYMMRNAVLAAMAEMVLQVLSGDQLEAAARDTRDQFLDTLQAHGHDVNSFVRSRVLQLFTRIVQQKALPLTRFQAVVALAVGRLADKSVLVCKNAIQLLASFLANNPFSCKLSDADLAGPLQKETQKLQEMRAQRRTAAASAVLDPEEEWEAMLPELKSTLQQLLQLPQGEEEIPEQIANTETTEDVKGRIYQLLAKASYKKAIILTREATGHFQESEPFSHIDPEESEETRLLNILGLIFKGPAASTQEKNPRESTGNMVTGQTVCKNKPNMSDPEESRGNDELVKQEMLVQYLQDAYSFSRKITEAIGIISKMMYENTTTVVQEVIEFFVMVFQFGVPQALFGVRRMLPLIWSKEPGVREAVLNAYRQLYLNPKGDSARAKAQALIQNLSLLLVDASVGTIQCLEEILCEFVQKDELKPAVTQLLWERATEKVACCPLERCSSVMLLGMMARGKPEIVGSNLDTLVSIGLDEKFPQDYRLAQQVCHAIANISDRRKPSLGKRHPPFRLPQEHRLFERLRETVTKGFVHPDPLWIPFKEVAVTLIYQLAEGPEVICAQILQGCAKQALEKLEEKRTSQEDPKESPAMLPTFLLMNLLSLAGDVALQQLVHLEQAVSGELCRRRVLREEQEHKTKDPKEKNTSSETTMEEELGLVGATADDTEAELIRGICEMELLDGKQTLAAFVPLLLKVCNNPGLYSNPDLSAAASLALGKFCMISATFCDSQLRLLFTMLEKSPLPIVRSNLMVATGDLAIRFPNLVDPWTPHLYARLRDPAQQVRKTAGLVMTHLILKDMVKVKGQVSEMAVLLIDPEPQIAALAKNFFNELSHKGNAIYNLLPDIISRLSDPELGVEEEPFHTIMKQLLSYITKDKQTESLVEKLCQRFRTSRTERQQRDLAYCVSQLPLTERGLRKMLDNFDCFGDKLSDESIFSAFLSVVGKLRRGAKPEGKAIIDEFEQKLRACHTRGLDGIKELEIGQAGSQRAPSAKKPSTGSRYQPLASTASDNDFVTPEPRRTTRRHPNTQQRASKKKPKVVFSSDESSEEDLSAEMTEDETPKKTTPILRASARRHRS
UniProt Q15008: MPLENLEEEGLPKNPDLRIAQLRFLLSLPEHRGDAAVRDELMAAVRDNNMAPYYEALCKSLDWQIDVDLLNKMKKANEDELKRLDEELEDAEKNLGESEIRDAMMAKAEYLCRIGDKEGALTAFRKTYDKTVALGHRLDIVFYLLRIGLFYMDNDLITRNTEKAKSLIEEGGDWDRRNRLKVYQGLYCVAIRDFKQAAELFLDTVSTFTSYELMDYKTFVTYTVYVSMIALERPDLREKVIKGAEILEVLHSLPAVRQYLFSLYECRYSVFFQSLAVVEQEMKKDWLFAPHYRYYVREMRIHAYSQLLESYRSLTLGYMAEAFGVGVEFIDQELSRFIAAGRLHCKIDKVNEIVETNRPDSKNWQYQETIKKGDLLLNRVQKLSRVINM
UniProt Q14696: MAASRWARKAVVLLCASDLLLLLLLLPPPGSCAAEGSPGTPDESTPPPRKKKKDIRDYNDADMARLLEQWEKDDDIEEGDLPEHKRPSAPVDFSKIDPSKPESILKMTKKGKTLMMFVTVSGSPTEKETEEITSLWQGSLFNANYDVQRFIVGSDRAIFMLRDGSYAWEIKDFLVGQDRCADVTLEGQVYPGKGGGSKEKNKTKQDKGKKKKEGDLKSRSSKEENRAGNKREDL
UniProt Q13043: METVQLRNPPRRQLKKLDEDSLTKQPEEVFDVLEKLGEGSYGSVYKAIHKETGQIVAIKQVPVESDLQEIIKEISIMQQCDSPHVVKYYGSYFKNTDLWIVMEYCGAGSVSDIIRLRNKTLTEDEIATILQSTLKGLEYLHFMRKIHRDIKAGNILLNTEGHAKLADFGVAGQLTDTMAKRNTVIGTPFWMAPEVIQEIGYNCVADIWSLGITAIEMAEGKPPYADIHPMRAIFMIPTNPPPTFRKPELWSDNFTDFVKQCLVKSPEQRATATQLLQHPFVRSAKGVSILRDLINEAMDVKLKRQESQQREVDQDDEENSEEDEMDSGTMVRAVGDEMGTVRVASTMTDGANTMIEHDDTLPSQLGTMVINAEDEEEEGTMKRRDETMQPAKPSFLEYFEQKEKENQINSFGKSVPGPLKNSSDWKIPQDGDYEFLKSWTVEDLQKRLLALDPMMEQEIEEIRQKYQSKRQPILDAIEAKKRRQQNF
UniProt Q13163: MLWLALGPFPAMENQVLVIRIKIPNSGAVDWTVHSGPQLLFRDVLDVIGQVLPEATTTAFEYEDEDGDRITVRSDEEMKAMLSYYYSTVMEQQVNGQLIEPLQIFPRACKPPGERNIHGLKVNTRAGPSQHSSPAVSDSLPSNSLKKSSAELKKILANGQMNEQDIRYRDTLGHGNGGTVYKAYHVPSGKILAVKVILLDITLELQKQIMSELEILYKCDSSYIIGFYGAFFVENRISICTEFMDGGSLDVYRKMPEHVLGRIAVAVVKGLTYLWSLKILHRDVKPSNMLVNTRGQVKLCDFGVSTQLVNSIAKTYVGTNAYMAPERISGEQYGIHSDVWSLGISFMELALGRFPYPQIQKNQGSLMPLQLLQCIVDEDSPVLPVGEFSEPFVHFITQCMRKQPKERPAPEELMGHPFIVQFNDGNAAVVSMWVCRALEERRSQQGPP
UniProt Q12974: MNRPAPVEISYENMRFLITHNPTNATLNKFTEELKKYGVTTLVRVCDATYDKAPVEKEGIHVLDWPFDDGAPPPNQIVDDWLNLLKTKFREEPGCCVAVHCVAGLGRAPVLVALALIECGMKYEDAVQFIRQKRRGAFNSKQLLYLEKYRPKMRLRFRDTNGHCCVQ
UniProt Q14289, whole entry, looked up: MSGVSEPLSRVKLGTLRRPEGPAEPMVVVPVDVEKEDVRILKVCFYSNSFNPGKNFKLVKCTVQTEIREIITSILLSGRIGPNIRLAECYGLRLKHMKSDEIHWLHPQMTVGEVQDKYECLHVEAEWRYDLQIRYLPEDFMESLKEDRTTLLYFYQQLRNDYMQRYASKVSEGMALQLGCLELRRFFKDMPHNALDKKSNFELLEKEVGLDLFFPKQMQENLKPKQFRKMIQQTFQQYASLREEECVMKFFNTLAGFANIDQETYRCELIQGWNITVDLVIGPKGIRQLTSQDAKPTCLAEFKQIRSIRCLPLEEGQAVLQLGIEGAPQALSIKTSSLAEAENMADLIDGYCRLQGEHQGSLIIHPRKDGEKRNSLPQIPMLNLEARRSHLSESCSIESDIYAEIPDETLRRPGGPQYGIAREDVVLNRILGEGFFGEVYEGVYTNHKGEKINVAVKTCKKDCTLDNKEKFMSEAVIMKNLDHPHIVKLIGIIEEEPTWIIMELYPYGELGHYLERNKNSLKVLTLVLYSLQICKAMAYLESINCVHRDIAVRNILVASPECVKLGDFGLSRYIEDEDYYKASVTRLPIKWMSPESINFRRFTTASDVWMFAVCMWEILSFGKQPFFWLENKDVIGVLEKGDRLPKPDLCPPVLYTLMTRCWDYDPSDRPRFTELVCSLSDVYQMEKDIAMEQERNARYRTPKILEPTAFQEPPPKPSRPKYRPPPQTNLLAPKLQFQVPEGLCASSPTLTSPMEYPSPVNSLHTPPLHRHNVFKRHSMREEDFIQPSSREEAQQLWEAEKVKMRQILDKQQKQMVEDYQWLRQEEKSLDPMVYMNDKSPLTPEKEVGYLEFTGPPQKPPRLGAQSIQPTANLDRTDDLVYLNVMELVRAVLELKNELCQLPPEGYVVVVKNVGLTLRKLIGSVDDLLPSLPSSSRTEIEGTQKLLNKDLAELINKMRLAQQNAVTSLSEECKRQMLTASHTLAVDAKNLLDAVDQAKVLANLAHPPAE

Compound: Nc1ncnc2c1ncn2[C@@H]1O[C@H](COP(=O)(O)OP(=O)(O)NP(=O)(O)O)[C@@H](O)[C@H]1O [adenylyl imidodiphosphate]
Assay: NP40-soluble protein abundance relative to vehicle (solubility fold change) (ratio); higher = more soluble protein in presence of AMP-PNP
Procedure, shortened: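 Each value is a fold change relative to the detergent-processed vehicle, calculated per replicate from vsn-normalised intensities. Jurkat crude lysate received eight concentrations (0.1 to 10 mM) for 10 min at room temperature and 3 min at 37 °C, then was solubilised in 0.8% NP40 with benzonase (60 min, 4 °C). The ultracentrifuged supernatant was TMT-labelled and run by LC-MS/MS in three independent experiments.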

Target	NP40-soluble protein abundance (concentration: 0.1mM)	NP40-soluble protein abundance (concentration: 0.5mM)
UniProt Q13310-3|Q13310	0.997 ± 0.037	1.02 ± 0.013
UniProt Q13136 and related entries	1.02 ± 0.057	1 ± 0.061
SLC39A6 (UniProt Q13433)	1.01 ± 0.042	1.03 ± 0.039
ARHGEF6 (UniProt Q15052)	0.991 ± 0.011	0.9996 ± 0.0073
UniProt Q13740 and related entries	0.958 ± 0.034	1.01 ± 0.037
KRR1 (UniProt Q13601)	1.01 ± 0.033	1.035 ± 0.003
UniProt Q13416	0.993 ± 0.023	0.985 ± 0.065
UniProt Q13618 and related entries	1.01 ± 0.017	0.982 ± 0.057
SLFN5 (UniProt Q08AF3)	1.09 ± 0.072	1.06 ± 0.068
UniProt Q13362-2|Q13362-3|Q13362-4	0.962 ± 0.027	0.973 ± 0.034
UniProt Q12800 and related entries	1.01 ± 0.022	0.953 ± 0.031
UniProt Q12906 and related entries	1.02 ± 0.041	1.05 ± 0.056
PRDX4 (UniProt Q13162)	0.995 ± 0.031	0.998 ± 0.092
TWF1 (UniProt Q12792)	0.965 ± 0.031	0.982 ± 0.04
ZNF638 (UniProt Q14966)	0.993 ± 0.02	1.03 ± 0.022
HSPA14 (UniProt Q0VDF9)	1.01 ± 0.059	0.999 ± 0.046
UniProt Q14669-2|Q14669-3	0.997 ± 0.018	1.01 ± 0.03
BYSL (UniProt Q13895)	1.02 ± 0.032	1.02 ± 0.011
DSG2 (UniProt Q14126)	0.976 ± 0.043	0.974 ± 0.04
UniProt Q15067-2|Q15067	1.03 ± 0.025	1.06 ± 0.06

Target	NP40-soluble protein abundance (concentration: 0.1mM)	NP40-soluble protein abundance (concentration: 0.5mM)
RIPK1 (UniProt Q13546)	0.974 ± 0.031	0.967 ± 0.039
UniProt Q14694 and related entries	1.02 ± 0.014	1.02 ± 0.053
MTM1 (UniProt Q13496)	0.984 ± 0.015	0.967 ± 0.043
UniProt Q15020 and related entries	1.01 ± 0.022	1.01 ± 0.02
GALE (UniProt Q14376)	0.988 ± 0.02	1 ± 0.049
UniProt Q14643 and related entries	1.02 ± 0.026	0.995 ± 0.038
CSTF3 (UniProt Q12996)	1.02 ± 0.025	1.03 ± 0.051
KPNB1 (UniProt Q14974)	1.01 ± 0.032	1.01 ± 0.011
AHNAK (UniProt Q09666)	0.975 ± 0.018	0.991 ± 0.059
SCARB2 (UniProt Q14108)	1 ± 0.027	0.996 ± 0.039
TRIM32 (UniProt Q13049)	1 ± 0.014	1.03 ± 0.03
NCAPD2 (UniProt Q15021)	1.005 ± 0.0077	0.982 ± 0.022
PSMD6 (UniProt Q15008)	1.01 ± 0.042	0.993 ± 0.048
EIF2B1 (UniProt Q14232)	0.998 ± 0.032	1.04 ± 0.044
NCOA6 (UniProt Q14686)	0.9786 ± 0.0074	0.974 ± 0.02
ZNF146 (UniProt Q15072)	0.9607 ± 0.0067	0.9483 ± 0.0085
FADD (UniProt Q13158)	1.06 ± 0.033	1.08 ± 0.027
BOP1 (UniProt Q14137)	0.9777 ± 0.0039	0.99 ± 0.045
UniProt Q14789 and related entries	0.985 ± 0.018	0.987 ± 0.028
UniProt Q14103-3|Q14103-4|D6RF44	0.983 ± 0.04	1.05 ± 0.064

Complete entries as entered above.
UniProt Q14789 and related entries is entered as NP40-soluble protein abundance (concentration: 0.1mM): 0.985 ± 0.018; NP40-soluble protein abundance (concentration: 0.5mM): 0.987 ± 0.028
TRIM32 (UniProt Q13049) is entered as NP40-soluble protein abundance (concentration: 0.1mM): 1 ± 0.014; NP40-soluble protein abundance (concentration: 0.5mM): 1.03 ± 0.03
NCAPD2 (UniProt Q15021) is entered as NP40-soluble protein abundance (concentration: 0.1mM): 1.005 ± 0.0077; NP40-soluble protein abundance (concentration: 0.5mM): 0.982 ± 0.022

(list continues)

Target	NP40-soluble protein abundance (concentration: 0.1mM)	NP40-soluble protein abundance (concentration: 0.5mM)
FAM50A (UniProt Q14320)	0.98 ± 0.043	0.995 ± 0.03
UniProt Q13042 and related entries	1.02 ± 0.073	0.982 ± 0.15
UniProt Q14696	0.934 ± 0.023	0.987 ± 0.046
UniProt Q13131 and related entries	1.03 ± 0.024	1.01 ± 0.011
UniProt Q14157 and related entries	0.974 ± 0.025	1.03 ± 0.072
UniProt Q13043	0.997 ± 0.014	1.01 ± 0.037
UniProt Q13163 and related entries	1.002 ± 0.005	0.954 ± 0.037
NFX1 (UniProt Q12986)	0.99 ± 0.036	1 ± 0.022
UniProt Q12974 and related entries	1 ± 0.028	1.01 ± 0.041
UniProt Q13608 and related entries	1.09 ± 0.029	1.08 ± 0.033
UniProt Q14289-2|Q14289	1 ± 0.035	0.965 ± 0.06
SREBF2 (UniProt Q12772)	1.01 ± 0.018	1.02 ± 0.025
WTAP (UniProt Q15007)	1 ± 0.024	1.06 ± 0.068
KIF14 (UniProt Q15058)	1 ± 0.014	0.957 ± 0.01
MCM6 (UniProt Q14566)	0.983 ± 0.023	0.944 ± 0.083
UniProt Q12872 and related entries	0.994 ± 0.038	1.02 ± 0.018
STX4 (UniProt Q12846)	0.993 ± 0.028	0.986 ± 0.017
UniProt Q12959-3|A0A0C4DFT3|Q12959-4	0.96 ± 0.035	0.974 ± 0.027
ITPK1 (UniProt Q13572)	1.03 ± 0.011	1.04 ± 0.013
